PubChem BioAssay AID588497 (NMMLSC, 2011)
Hit rate of the full screen: of about 360,000 compounds, about 780 (0.22%) were called active. Inconclusive means that the source gave no clear call. Such entries were picked first, then a sample of the others. Rule as the data show it: active = inhibition above about 35% (passing the limit was not always enough); inconclusive = no clear call, values can overlap the other calls.

Each compound was assayed on Botulinum neurotoxin type F light chain protease (Clostridium botulinum) (assay: BoNT/F light chain protease inhibitors, primary screen, biochemical, flow cytometry, MLPCN library (AID 588497; also: plate controls were buffer without enzyme for full effect and enzyme alone for no effect)). Conditions: Multiplex microsphere protease cleavage assay, at 10 µM, stronger effect = higher value.
In the case of `COc1ccc(N2C(=O)CC(c3cc(OC)c(OC)c(OC)c3)CC2=O)cc1`, the inhibition is reported as inconclusive: 5.3%.
For `CC(C)Oc1cc(F)ccc1-c1cc(C(=O)Nc2cccc(Cl)c2)[nH]n1`, the inhibition was inactive: -7.1%.
With `CS(=O)(=O)N(Cc1ccccc1Cl)c1ccc(C(=O)N2CCCC2)cc1` the inhibition was inconclusive: -6.6%.
`O=C(N/N=C/c1ccc([N+](=O)[O-])cc1)c1cccs1` was tested, and the inhibition was inconclusive: -13.9%.
For `Cc1[nH]n(-c2ccccc2)c(=O)c1N=Nc1c(Cl)cccc1Cl`, the inhibition was inconclusive: 26.1%.
`CCOC(=O)N1CCC(NC(=O)CS(=O)Cc2nc(-c3ccc(Cl)cc3)oc2C)CC1` (configuration not stated) was tested, and the inhibition was inactive: 10.7%.
`O=S(=O)(Nc1c(F)cccc1F)c1ccc(Cl)nc1` was tested, and the inhibition was inconclusive: 6.1%.
With `COc1ccc(C(=O)CCNc2ccc(F)cc2)cc1` the inhibition was inconclusive: -41.2%.
For `C[C@H](NC(=O)c1cc2cc(Cl)ccc2n1C)C(=O)N[C@@H](C(=O)O)c1ccccc1`, the inhibition was inactive: -5.3%.
With `COc1ccc2oc(C(=O)OCC(=O)Nc3ccccc3OC)c(C)c2c1` the inhibition was inconclusive: -0.1%.
In the case of `CCOC(=O)C1=C[C@@H](C2CCCC2)N(S(=O)(=O)c2ccc([N+](=O)[O-])cc2)[C@H]1c1ccccc1`, the inhibition is reported as inactive: 1.2%.
`Cc1cc(C(=O)N2CCC(C)CC2)on1` was tested, and the inhibition was inactive: -1%.
With `N=c1n(CC(=O)c2ccc([N+](=O)[O-])cc2)c2ccccc2n1Cc1ccccc1` the inhibition was inactive: -2.3%.
With `Cc1cc(C)c2c(CC(=O)N3CCCC3)coc2c1` the inhibition was inconclusive: -29.8%.
In the case of `Cc1[nH]ncc1-c1ccccc1Cl`, the inhibition is reported as inconclusive: 1.7%.
For `O=C(NCc1ccccc1)c1cccnc1`, the inhibition was inconclusive: 1.1%.
For `O=[N+]([O-])c1ccc(SCCc2ccncc2)cc1`, the inhibition was inconclusive: -38%.
In the case of `Cc1cccc(NC(=O)COc2ccccc2)c1`, the inhibition is reported as inactive: -14.5%.
In the case of `Cc1ccc(SCCOCCN2CCOCC2)cc1`, the inhibition is reported as inconclusive: 23%.
With `CN(CC1CCN(CCc2cccc(C(F)(F)F)c2)CC1)C(=O)c1ccc(F)cc1` the inhibition was inconclusive: -8.2%.
In the case of `COc1ccc(CNCc2c(O)c(Cl)cc3c(C)c(C)c(=O)oc23)c(OC)c1`, the inhibition is reported as inactive: 19.4%.
In the case of `CN(C)CCCNC(=S)N1CCN(c2nc(-c3ccccc3)cs2)CC1`, the inhibition is reported as inconclusive: 6.1%.
For `COCCNc1oc(-c2ccccc2Cl)nc1S(=O)(=O)c1ccc(C)cc1`, the inhibition was inactive: 0.9%.
For `N#Cc1cccc(C(=O)Nc2ccccc2C(=O)NC2CC2)c1`, the inhibition was inconclusive: 1%.
`COc1cccc(CNC(=O)C(CCSC)NS(=O)(=O)c2ccc3c(c2)oc(=O)n3C)c1` (configuration not stated) was tested, and the inhibition was active: 37%.
In the case of `Cc1cc(=O)n2[nH]c(C(=O)O)nc2n1`, the inhibition is reported as inactive: 2.7%.
For `Cc1ccc(C2(c3ccccc3)NC(=O)N(CC(=O)NC3CCS(=O)(=O)C3)C2=O)cc1C` (configuration not stated), the inhibition was inactive: -7.2%.
With `CCOC(=O)CNC(=O)C1COc2ccccc2O1` (configuration not stated) the inhibition was inconclusive: -10.9%.
In the case of `COc1cccc(NC(=O)CN2C(=O)COc3ccc(C)cc32)c1`, the inhibition is reported as inconclusive: -33.6%.
`O=C(CSc1c2c(nc3cc(Cl)ccc13)CCCC2)NCCN1CCOCC1` was tested, and the inhibition was inactive: 1.9%.
With `Cc1ccccc1NC(=O)CSc1nc(O)cc(=O)n1C` the inhibition was inconclusive: -56.6%.
With `CSCC(=O)N1CCCC(N2CCN(c3cccc(C(F)(F)F)c3)CC2)C1` (configuration not stated) the inhibition was inconclusive: -23.2%.
In the case of `COc1ccc(/C=N/NC(=O)c2cnccn2)c(OC)c1OC`, the inhibition is reported as inconclusive: -20.6%.
For `COc1ccc(CC(NC(C)=O)C(=O)NC2CCN(C(=O)c3ccncc3)CC2)cc1OC` (configuration not stated), the inhibition was inactive: -3.8%.
`CC1(C)C([N+](=O)[O-])C(c2ccc(F)cc2)NC(c2ccc(F)cc2)C1[N+](=O)[O-]` (configuration not stated) was tested, and the inhibition was inconclusive: 75%.
With `CC1Cc2cc(/C=C3/SC(=S)NC3=O)ccc2O1` (configuration not stated) the inhibition was inconclusive: -21.1%.
With `CC(C)(C)NS(=O)(=O)c1ccc(NC(=O)CS(=O)(=O)Cc2ccccc2)cc1` the inhibition was inconclusive: -7%.
For `N#CCCCCn1ccc(NC(=O)c2ccc(Cl)cc2O)n1`, the inhibition was inconclusive: 30.3%.
For `O=C(CCNS(=O)(=O)c1ccccc1)OCC(=O)c1ccc[nH]1`, the inhibition was inconclusive: 18.4%.
With `CCOc1cc(NC(=O)c2ccccn2)c(OCC)cc1NC(=O)c1ccc(Cl)cc1` the inhibition was inconclusive: -9.4%.
For `CCOC(=O)Cn1cc(Cl)c(=O)c(Cl)c1`, the inhibition was inconclusive: 19.8%.
With `Cc1ccc(/C(O)=C2\C(=O)C(=O)N(C)C2c2ccccc2[N+](=O)[O-])cc1` (configuration not stated) the inhibition was inconclusive: -66.1%.
For `CCOP(=O)(Cc1ccc(C#N)o1)OCC`, the inhibition was inconclusive: 31.9%.
In the case of `Cc1cc(C)c(C(N)=O)c(Nc2ccc(F)cc2)n1`, the inhibition is reported as inconclusive: -11.5%.
For `CN1C=CC(=CC=C2C=CC(=O)C=C2)C=C1`, the inhibition was inconclusive: -57%.
With `Cc1ccc(Cl)cc1NC(C#N)c1ccccc1` (configuration not stated) the inhibition was inconclusive: 58.3%.
For `Cc1ccnc(NCc2ccccc2O)c1`, the inhibition was inconclusive: 17.8%.
With `COc1ccc(-c2ccoc2)cc1[C@H]1[C@H]2C=CC[C@@H](C)[C@@H]2C(=O)N1Cc1ccccc1` the inhibition was inactive: 6%.
`Cc1ccc(S(=O)(=O)N2CCCCC2)cc1NC(=O)c1cnccn1` was tested, and the inhibition was inactive: 11.3%.
For `CS(=O)(=O)N(CC(=O)NCCSCc1ccccc1)c1ccccc1Br`, the inhibition was inconclusive: 35.2%.
`Cc1ccsc1C1C(C(=O)O)c2ccccc2C(=O)N1C` (configuration not stated) was tested, and the inhibition was inconclusive: -29.7%.
`CCOc1ccc(-c2c(=O)n(OCc3nc4ccccc4[nH]3)c3ccccc3[n+]2[O-])cc1` was tested, and the inhibition was inconclusive: -83.3%.
With `COc1cccc(OC)c1C(=O)OCC(=O)NCC1CCCCC1` the inhibition was inactive: 0.1%.
With `O=C(N/N=C/c1cccnc1)c1ccccc1Br` the inhibition was inconclusive: 14.3%.
In the case of `CN(C)S(=O)(=O)N1CCN(c2ccnc3cc(Cl)ccc23)CC1`, the inhibition is reported as inconclusive: -35%.
For `O=C1/C(=C/c2ccc(O)cc2)SC(=S)N1CC1CCCO1` (configuration not stated), the inhibition was inactive: 4.6%.
`O=C(O)C(Cc1cc2ccccc2[nH]1)N1C(=O)C2CC=C(Cl)CC2C1=O` (configuration not stated) was tested, and the inhibition was inconclusive: -37.3%.
With `O=C(NC1CC2CCCC(C1)N2Cc1ccccc1)c1cccc(F)c1` (configuration not stated) the inhibition was inconclusive: 53.7%.
For `CCOC(=O)c1cc(-c2csc(Nc3ccccc3Cl)n2)on1`, the inhibition was inconclusive: 29.1%.
`O=C(Oc1cc(=O)oc2c1c(=O)n1c3c(cccc23)CC1)c1ccccc1` was tested, and the inhibition was inconclusive: 39.1%.
In the case of `COc1cccc(N2C(=O)CC(NNc3nc4ccccc4s3)C2=O)c1` (configuration not stated), the inhibition is reported as inconclusive: 5.3%.
In the case of `CN(C)C(CNC(=O)c1cc2ccccc2o1)c1ccccc1` (configuration not stated), the inhibition is reported as inconclusive: 5.4%.
In the case of `CCC1CCCCN1CC(=O)c1c(C)[nH]c2ccc(OC)cc12` (configuration not stated), the inhibition is reported as inconclusive: -69.9%.
`COc1ccc(CNCc2cc3c(cc2[N+](=O)[O-])OCO3)cc1` was tested, and the inhibition was inconclusive: -3.9%.
For `N#CCc1c(C#N)c(N)nc(N2CCN(Cc3ccc4c(c3)OCO4)CC2)c1C#N`, the inhibition was inactive: 1.4%.
In the case of `COc1cc(-c2noc(C3CCCN(C(=O)c4c(F)cccc4F)C3)n2)cc(OC)c1OC` (configuration not stated), the inhibition is reported as inconclusive: -24.9%.
With `Cc1ccccc1-c1cccc(CN2CCN(C)C(CCO)C2)c1` (configuration not stated) the inhibition was inconclusive: -5%.
`Cc1noc(C)c1CSCC(=O)Nc1cccc(C(F)(F)F)c1` was tested, and the inhibition was inactive: -5.1%.
In the case of `O/N=C/c1ccc(-c2ccccc2OC(F)(F)F)o1`, the inhibition is reported as inconclusive: -40.8%.
In the case of `O=C(Nc1ccc2c(c1)OCCO2)c1ccc(Br)c(S(=O)(=O)N2CCOCC2)c1`, the inhibition is reported as inactive: -6.5%.
`Cc1nc2ccc(Br)cn2c1C(=O)N/N=C\c1ccccc1Cl` was tested, and the inhibition was inconclusive: -1.4%.
In the case of `COc1c2c(cc3ccc(=O)oc13)CCO2`, the inhibition is reported as inactive: 10.9%.
`NCC12CC3CC(C1)CC(CN)(C3)C2` was tested, and the inhibition was inactive: -6.8%.
`COCCN(C(=O)c1csnn1)C(C(=O)NC1CCCCC1)c1cccs1` (configuration not stated) was tested, and the inhibition was inactive: -46.6%.
With `Cc1ccc(NC(=S)N2CCc3[nH]c4ccccc4c3C2)cc1` the inhibition was inconclusive: -26%.
In the case of `NNc1nc(-c2ccccc2)nc(-c2ccccc2)c1Br`, the inhibition is reported as inconclusive: -53.6%.
In the case of `Cn1c(=O)c2c(ncn2CCC(=O)N/N=C/c2cccnc2)n(C)c1=O`, the inhibition is reported as inconclusive: -32.6%.
With `CCOC(=O)C1CCN(C(=O)CCC2CCCC2)CC1` the inhibition was inconclusive: 10.5%.
`CCc1nc(Nc2ccc(NC(C)=O)cc2)c2oc3ccccc3c2n1` was tested, and the inhibition was inconclusive: -12.8%.
With `O=C(CN1CCN(Cc2ccc(Cl)cc2)CC1)N/N=C/c1cccc(F)c1` the inhibition was inconclusive: -18.2%.
For `C=CCS(=O)(=O)N1CCCC(Cc2ccccc2C)(C(=O)OCC)C1` (configuration not stated), the inhibition was inconclusive: -0.4%.
`Cc1nnc(NC(=O)CN2CCN(Cc3ccccc3)CC2)s1` was tested, and the inhibition was inconclusive: 4.7%.
In the case of `CCOc1ccc2nc(-c3ccccc3)nc(SCC(=O)OC)c2c1`, the inhibition is reported as inconclusive: -7.3%.
`OCCNC(=S)Nc1ccc2c(c1)OCCO2` was tested, and the inhibition was inconclusive: -45.6%.
In the case of `CSc1nc2cc(C)nn2c(-c2ccccc2)c1C#N`, the inhibition is reported as inconclusive: 56%.
`COc1cc(C(=O)NCCCCCCNC(=O)c2cc(OC)c(OC)c(OC)c2)cc(OC)c1OC` was tested, and the inhibition was inconclusive: -8.4%.
In the case of `O=C(NNC(=O)C1CC=CCC1)c1ccccc1Cl` (configuration not stated), the inhibition is reported as inconclusive: -16.6%.
`CCn1c(=O)c([N+](=O)[O-])c(N2CCSCC2)c2ccccc21` was tested, and the inhibition was inconclusive: 8.6%.
For `COCCN1CCn2c(nc3cc(NC(=O)Cn4nc(C)c5ccccc5c4=O)ccc32)C1`, the inhibition was inconclusive: -6.3%.
In the case of `COC(=O)C1=C2SCC(=O)N2C(N)=C(C#N)C1`, the inhibition is reported as inconclusive: 39.5%.
`O=S(=O)(Nc1c(O)ccc2ccccc12)c1cccc2ccccc12` was tested, and the inhibition was inconclusive: -56.7%.
`COc1cc(C2C(C#N)=C(N)OC3=C2C(=O)CC(C)(C)C3)ccc1OCCN1CCOCC1` (configuration not stated) was tested, and the inhibition was inconclusive: 37.1%.
